Source: patent US20100047226A1
No constants are given. Whether binding was seen depends on the method and setting. Some entries that bind do so weakly or less than the wild type.

By UniProt entry, the sequences of proteins in these tests, tags left out.
UniProt P31750: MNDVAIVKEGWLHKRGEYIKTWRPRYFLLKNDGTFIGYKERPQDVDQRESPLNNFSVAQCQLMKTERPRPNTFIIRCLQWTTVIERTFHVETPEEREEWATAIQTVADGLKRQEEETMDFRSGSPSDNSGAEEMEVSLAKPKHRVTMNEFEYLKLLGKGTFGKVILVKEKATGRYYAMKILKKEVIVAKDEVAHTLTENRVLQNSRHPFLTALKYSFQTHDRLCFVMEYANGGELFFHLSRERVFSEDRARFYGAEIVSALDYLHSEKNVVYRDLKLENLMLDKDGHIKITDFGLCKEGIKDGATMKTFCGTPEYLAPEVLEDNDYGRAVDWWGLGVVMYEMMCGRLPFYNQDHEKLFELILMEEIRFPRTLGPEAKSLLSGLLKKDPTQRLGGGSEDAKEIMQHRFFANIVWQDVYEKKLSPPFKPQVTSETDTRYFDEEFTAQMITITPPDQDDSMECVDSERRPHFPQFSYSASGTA

Molecular target: AKT (Protein Kinase B), endogenous, mouse brain lysate and N2a cells (mouse) (UniProt P31750)
Test: fluorescence co-localisation of N-terminally dye-labeled ZaTa with AKT in cells

binding: binds
B1: ZaTa peptide labeled with a red fluorescent dye at its N-terminus (peptide)
peptide: AKRVKGRTWTLCGTPEY
modifications: red fluorescent dye at the N-terminus
